Measurements taken from article PMC11134550.
Results are given in words; binding and its absence hold for the method and conditions named. For some of these results: In cells and extracts the contact can be indirect. Some results given as binding are weak or reduced against the parent protein; the word gives no strength. Blank lines part the entries; values can stand above or below the substance they belong to.

By UniProt entry, the sequences of proteins in these tests, tags left out. Where a name states a change or a piece, a line headed by the entry shows the natural chain unless it says otherwise. Residues count along the entry.
UniProt P05556: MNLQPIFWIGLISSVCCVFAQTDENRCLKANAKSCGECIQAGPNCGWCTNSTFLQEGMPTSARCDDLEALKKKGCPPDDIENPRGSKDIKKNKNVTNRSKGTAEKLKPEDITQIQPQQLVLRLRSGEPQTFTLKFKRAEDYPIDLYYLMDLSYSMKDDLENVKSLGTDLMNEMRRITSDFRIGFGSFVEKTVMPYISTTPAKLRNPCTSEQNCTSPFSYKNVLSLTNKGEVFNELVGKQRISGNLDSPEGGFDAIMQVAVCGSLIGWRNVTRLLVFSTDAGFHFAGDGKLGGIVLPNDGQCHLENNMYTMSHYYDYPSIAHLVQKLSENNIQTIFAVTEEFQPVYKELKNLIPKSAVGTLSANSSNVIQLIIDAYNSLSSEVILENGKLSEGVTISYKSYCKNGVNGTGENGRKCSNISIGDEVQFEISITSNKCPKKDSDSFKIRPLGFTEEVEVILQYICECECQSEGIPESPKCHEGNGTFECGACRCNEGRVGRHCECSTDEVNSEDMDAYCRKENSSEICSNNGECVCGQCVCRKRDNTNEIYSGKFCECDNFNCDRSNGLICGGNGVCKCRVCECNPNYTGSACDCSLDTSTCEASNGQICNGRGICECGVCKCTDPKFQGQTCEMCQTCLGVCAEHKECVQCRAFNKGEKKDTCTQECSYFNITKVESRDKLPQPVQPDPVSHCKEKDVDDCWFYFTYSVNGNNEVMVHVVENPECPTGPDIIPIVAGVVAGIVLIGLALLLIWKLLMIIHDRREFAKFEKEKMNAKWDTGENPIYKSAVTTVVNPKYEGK
UniProt P37173, residues 23-166: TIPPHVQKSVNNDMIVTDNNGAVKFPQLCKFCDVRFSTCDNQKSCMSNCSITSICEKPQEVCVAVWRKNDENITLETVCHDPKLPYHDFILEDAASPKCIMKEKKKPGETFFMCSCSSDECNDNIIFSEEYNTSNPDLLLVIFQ

Key:
[1] = biological target: endogenous β1 integrin of human lung fibroblasts (human (endogenous in primary human lung fibroblasts)) (UniProt P05556); test: proximity ligation; Duolink In Situ Red; fixed unpermeabilized human lung fibroblasts: IPF HLFs untreated or with 2 ng/ml TGF-β1 for 24 h, non-IPF HLFs with TGF-β1; anti-β1 integrin (mouse) and anti-galectin-3 (rabbit); signal means ≤40 nm
[2] = biological target: endogenous β1 integrin of human lung fibroblasts (human (endogenous in primary human lung fibroblasts)) (UniProt P05556); test: co-IP; Pierce Crosslink IP Kit; whole-cell lysates (650 μg) of untreated non-IPF human lung fibroblasts; IP with anti-β1 integrin (P5D2) and blot for galectin-3, or IP with anti-galectin-3 (EPR19244) and blot for β1 integrin; IgG isotype controls
[3] = biological target: endogenous galectin-3 of human lung fibroblasts (human (endogenous in primary human lung fibroblasts)) (UniProt P17931); test: as above
[4] = biological target: extracellular domain of the recombinant human TGFβRII protein (glycosylated) (human) (UniProt P37173); test: SPR; solution competition: glycosylated integrin or TGFβRII immobilised on CM5; 625 nM galectin-3 injected with 2-fold serial dilutions of the small molecules GB0139 or GB1107 (1.5% DMSO), 30 μl/min, 20 °C; responses normalised to DMSO control; both purified

binding [1]: binds
binding [2]: binds
Substance: endogenous galectin-3 of human lung fibroblasts (from UniProt P17931 1-250)

binding [3]: binds
Substance: endogenous β1 integrin of human lung fibroblasts (from UniProt P05556 21-798) (receptor)

binding [4]: binds
Substance: recombinant human galectin-3 (expressed and purified for SPR) (from UniProt P17931 1-250)
